The values below come from US20250127754A1, “Pharmaceutical Application of Dimyricetin-yl-diselenide in Atherosclerosis” (Shanghai Spark Pharmaceutical Co., Ltd., priority 2023, published 2025).

Each structure is given as a SMILES string.

Assay [1] relates to ApoE−/− mice. In words: Plasma LDH content, high-fat diet atherosclerosis model. In kind it is in vivo. The settings on record: 18th week, compared to the model group; P<0.05. An excerpt: Upon arrival, ApoE−/− mice were acclimatized to the experimental facility for 3 days. […] Control mice were fed a regular diet, while the remaining mice were fed a high-fat diet for 18 weeks. […] At 8 weeks of high-fat feeding, the animals underwent echocardiography and blood biochemical tests. […] Drug administration continued for 10 weeks. During the experiment, the animals' appearance, behavior, and physical condition were observed, and their body weight, echocardiography, serum lipids (TC, TG, HDL-C, and LDL-C), and blood biochemistry (LDH, SOD, and MDA) were monitored. At the end of the experiment (Week 18), hearts and aortas were collected for Oil Red O staining and histopathological analysis. Animals were fasted the night before blood collection. Blood samples were collected and anticoagulated with heparin to prepare plasma for the detection of TG, TC, HDL-C, LDL-c, and LDH. Blood was collected at six time points: […]

The subject of assay [2] is ApoE−/− mice. Briefly: Heart weight and heart weight index (tibial length corrected). In kind it is in vivo. The conditions noted are these: week 18, 10 weeks QD: Atorvastatin 20 mg/kg P.O., AQ-C-a 300 mg/kg P.O., DMS-ASD 300 mg/kg P.O., DMS 20 mg/kg SC. Here is the method: At the experimental endpoint, hearts and tibias were collected. The heart was weighed and its weight index was calculated using tibial length for correction, with the formula: Heart Index=Heart Weight (g)/Tibial Length (cm)×100%. The heart was fixed in 4% PFA and subjected to HE staining to evaluate fat plaques in the outflow tract.

`CC(C)c1c(C(=O)Nc2ccccc2)c(-c2ccccc2)c(-c2ccc(F)cc2)n1CC[C@@H](O)C[C@@H](O)CC(=O)O` [Atorvastatin, reference compound]: the “Effect on plasma LDH (in words)” value with ApoE−/− mice [1] is on record as “significant reductions”. The Cardiac weight index in the assay with ApoE−/− mice [2] was found to be 0.102 ± 0.005 g/cm.
